Experimental data from paper PMC9687869, “Redox Regulation of Signaling Complex between Caveolin-1 and Neuronal Calcium Sensor Recoverin” (Biomolecules, 2022).
No constants are given. Whether binding was seen depends on the method and setting. Some entries that bind do so weakly or less than the wild type.

By UniProt entry, the sequences of proteins in these tests, tags left out. Where a name states a change or a piece, a line headed by the entry shows the natural chain unless it says otherwise. Chains listed by the source or under a name are the forms on record and can include a tag or linker. Residues count along the entry.
N-terminal fragment of caveolin-1 M1-R101 with N-terminal His6-tag (Cav) (Q03135, residues 1-101): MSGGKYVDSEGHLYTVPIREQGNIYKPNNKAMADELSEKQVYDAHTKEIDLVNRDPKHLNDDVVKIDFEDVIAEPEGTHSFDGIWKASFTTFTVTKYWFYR
N-terminally tagged caveolin-1 fragment M1-R101 with Y14E substitution (CavE) (Q03135, form named): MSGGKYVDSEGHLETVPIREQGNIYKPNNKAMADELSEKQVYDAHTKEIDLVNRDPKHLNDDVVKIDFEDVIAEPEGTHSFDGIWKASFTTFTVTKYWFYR

Key:
[1] = target: N-terminal fragment of caveolin-1 M1-R101 with N-terminal His6-tag (Cav) (UniProt Q03135); assay: pull-down; Cav or CavE covalently attached to BrCN-activated Sepharose CL-4B; 50 ug recoverin form; 20 mM Tris-HCl pH 7.5, 100 mM NaCl, 2 mM MgCl2, 2 mM EGTA (calcium-free); 30 min at room temperature; bound protein analysed by SDS-PAGE; both purified
[2] = target: N-terminally tagged caveolin-1 fragment M1-R101 with Y14E substitution (CavE) (UniProt Q03135); assay: condition: only with 2 mM Ca2+ (1 mM CaCl2 in the methods); analyte 2.5 to 30 uM; SPR; Cav or CavE immobilised by amine coupling (ProteOn GLH chip); analyte 2.5-30 uM recoverin form; 10 mM HEPES pH 7.4, 150 mM NaCl, 2 mM DTT (none for dRec), 0.05% TWEEN 20, with calcium (1 mM CaCl2 in the methods, 2 mM Ca2+ in Table 2); 25 C; heterogeneous ligand model; both purified
[3] = target: N-terminally tagged caveolin-1 fragment M1-R101 with Y14E substitution (CavE) (UniProt Q03135); assay: pull-down; Cav or CavE covalently attached to BrCN-activated Sepharose CL-4B; 50 ug recoverin form; 20 mM Tris-HCl pH 7.5, 100 mM NaCl, 2 mM MgCl2, 2 mM EGTA (calcium-free); 30 min at room temperature; bound protein analysed by SDS-PAGE; both purified

binding [1] | binding [2] | binding [3] | Binder
binds | no binding | – | recombinant myristoylated recoverin, reduced monomer (Rec) (protein, UniProt P21457 1-202, N-terminal myristoyl group (myristoylation rate more than 95%)) MGNSKSGALSKEILEELQLNTKFTEEELSSWYQSFLKECPSGRITRQEFQTIYSKFFPEADPKAYAQHVFRSFDANSDGTLDFKEYVIALHMTSAGKTNQKLEWAFSLYDVDGNGTISKNEVLEIVTAIFKMISPEDTKHLPEDENTPEKRAEKIWGFFGKKDDDKLTEKEFIEGTLANKEILRLIQFEPQKVKEKLKEKKL
– | – | binds | recoverin C39D mutant (Rec-C39D) (natural protein, UniProt P21457 1-202, looked up, N-terminal myristoyl group (myristoylation rate more than 95%), recoverin with C39D, which mimics oxidation of cysteine-39 to a sulfenic/sulfinic/sulfonic group; also called thiol oxidation mimicking mutant; oxidized monomer mimic) MGNSKSGALSKEILEELQLNTKFTEEELSSWYQSFLKEDPSGRITRQEFQTIYSKFFPEADPKAYAQHVFRSFDANSDGTLDFKEYVIALHMTSAGKTNQKLEWAFSLYDVDGNGTISKNEVLEIVTAIFKMISPEDTKHLPEDENTPEKRAEKIWGFFGKKDDDKLTEKEFIEGTLANKEILRLIQFEPQKVKEKLKEKKL
